The text below walks through data of patent US20230193285, “BISPECIFIC PERSONALIZED APTAMERS” (Aummune Ltd., published 2023).

Sequences of proteins named here, by UniProt entry; tags and fusion partners are left off. Residues count along the entry.
UniProt Q04721, 26-1677: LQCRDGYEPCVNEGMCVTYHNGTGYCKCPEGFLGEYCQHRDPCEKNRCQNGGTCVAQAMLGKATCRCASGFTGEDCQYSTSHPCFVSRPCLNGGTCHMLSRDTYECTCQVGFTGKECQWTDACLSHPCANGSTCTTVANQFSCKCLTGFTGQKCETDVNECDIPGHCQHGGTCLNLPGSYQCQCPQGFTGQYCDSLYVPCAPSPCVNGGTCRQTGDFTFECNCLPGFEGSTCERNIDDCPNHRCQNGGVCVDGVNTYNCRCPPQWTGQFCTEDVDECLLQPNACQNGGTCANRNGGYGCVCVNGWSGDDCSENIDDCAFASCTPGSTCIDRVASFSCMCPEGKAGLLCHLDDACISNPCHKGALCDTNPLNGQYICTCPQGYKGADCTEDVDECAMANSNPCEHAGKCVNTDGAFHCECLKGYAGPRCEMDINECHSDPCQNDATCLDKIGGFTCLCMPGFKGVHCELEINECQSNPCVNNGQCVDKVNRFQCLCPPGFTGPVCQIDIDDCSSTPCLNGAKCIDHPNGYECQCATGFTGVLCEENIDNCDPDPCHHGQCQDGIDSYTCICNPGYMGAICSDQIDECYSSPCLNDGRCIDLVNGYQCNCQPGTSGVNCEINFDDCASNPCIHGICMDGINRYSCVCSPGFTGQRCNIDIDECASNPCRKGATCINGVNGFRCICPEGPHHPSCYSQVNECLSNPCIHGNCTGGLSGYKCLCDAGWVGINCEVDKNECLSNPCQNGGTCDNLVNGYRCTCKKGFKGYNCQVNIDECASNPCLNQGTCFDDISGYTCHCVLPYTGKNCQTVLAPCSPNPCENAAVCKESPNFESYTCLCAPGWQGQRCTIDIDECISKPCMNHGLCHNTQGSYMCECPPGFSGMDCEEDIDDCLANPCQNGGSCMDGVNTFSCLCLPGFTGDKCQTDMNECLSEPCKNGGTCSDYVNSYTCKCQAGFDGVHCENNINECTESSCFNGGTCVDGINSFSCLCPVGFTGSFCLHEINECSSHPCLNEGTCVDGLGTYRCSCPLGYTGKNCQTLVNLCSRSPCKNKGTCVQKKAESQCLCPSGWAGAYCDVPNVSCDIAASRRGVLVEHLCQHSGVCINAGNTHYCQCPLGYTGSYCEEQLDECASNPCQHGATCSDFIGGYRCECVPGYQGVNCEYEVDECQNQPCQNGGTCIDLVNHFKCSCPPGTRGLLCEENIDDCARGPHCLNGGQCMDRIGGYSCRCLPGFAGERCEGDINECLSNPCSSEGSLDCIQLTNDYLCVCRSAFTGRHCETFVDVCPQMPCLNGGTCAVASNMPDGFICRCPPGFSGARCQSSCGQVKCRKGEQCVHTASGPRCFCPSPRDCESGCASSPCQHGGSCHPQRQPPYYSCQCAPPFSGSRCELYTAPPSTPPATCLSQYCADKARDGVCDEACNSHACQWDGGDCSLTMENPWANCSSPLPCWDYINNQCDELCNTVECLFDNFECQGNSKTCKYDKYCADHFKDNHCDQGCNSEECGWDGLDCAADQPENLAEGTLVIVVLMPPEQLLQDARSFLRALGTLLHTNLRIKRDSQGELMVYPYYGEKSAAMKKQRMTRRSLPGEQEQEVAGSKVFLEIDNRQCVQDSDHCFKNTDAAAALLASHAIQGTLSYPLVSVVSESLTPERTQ

Construct, isoform or probe ends are uncertain for at least one entry. For part of these data: No signal at the amounts used counts as a negative. For part of these data: Results from cells or extracts need not show a direct contact. For part of these data: Protein sequences can lack the tags named with them.

The target of one series is T1, KCNK17 (Homo sapiens) (UniProt Q96T54).
T1 sequence (looked up, limits assumed): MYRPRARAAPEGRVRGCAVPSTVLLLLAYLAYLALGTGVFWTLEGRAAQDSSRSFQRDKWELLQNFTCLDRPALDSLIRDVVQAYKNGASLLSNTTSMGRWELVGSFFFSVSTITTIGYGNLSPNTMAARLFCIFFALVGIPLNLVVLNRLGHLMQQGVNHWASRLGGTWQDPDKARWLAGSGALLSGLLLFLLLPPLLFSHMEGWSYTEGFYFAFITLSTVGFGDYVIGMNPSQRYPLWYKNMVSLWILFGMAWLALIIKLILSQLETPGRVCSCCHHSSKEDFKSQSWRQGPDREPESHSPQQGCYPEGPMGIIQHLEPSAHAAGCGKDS
Description: flow cytometry. As to conditions: concentration-dependent binding well above vector control; protein on the cell surface; single-stranded DNA.

The target of a further series is Notch2 (Homo sapiens) (UniProt Q04721). Description: flow cytometry. As to conditions: concentration-dependent binding well above vector control; protein on the cell surface; single-stranded DNA. (A flow cytometer gives signals particle by particle.)
Series [1] concerns IgG1 isotype control (Homo sapiens). The experiment in a line: binding assay. As to conditions: PS on first five 5' nucleotides of CpG motif, HPLC size exclusion, negative control protein, purified recombinant protein, protein details: InVivoMAb BE0297, label: Cy5-CpG' complementary strand, single-stranded DNA.
For series [2] the test system is unchanged. The experiment in a line: SPR. As to conditions: non-specific IgG control protein; purified recombinant protein; protein details: InVivoMAb BE0297; single-stranded DNA.

For “GCATACCTTTCGTATGCCTTTTTGACCCGTATTTTTGCCCTACCCTTCGG [CTL3]”, the binding result with KCNK17 (Homo sapiens) and in the series with Notch2 (Homo sapiens) was “binds” in each case. Regarding “TCGTCGTCGCGGTTCGCGTCCGTATCGTATAAGGGCTGCTTAGGATTGCGATAATACGGTCAA [CpG1-CS6]”, the binding result in series [1] (variant of CS6) was “no binding”.

With “ATCGTATAAGGGCTGCTTAGGATTGCGATAATACGGTCAA [CS6]”, in series [2], the binding result was “no binding”. On to “TCGTCGTCGCGGTTCGCGTCCGCTTTTAGGTCTGCTTAGGATTGCGAAAAAAG [CpG1-CS8c]”, for which, in series [1] (variant of CpG1-CS8), the binding result was “no binding”. Regarding “TCGTCGTCGCGGTTCGCGTCCGCATTTCATAGGGCTGCTTAGGATTGCGAAGGTAATGCCAG [CpG1-CS7]”, in series [1], the binding result is listed as “no binding”.
